## Primary screen of a compound library

Chains of the proteins cited; added tags and fusions are not shown. Residues count along the entry.
UniProt P9WPC5, whole entry: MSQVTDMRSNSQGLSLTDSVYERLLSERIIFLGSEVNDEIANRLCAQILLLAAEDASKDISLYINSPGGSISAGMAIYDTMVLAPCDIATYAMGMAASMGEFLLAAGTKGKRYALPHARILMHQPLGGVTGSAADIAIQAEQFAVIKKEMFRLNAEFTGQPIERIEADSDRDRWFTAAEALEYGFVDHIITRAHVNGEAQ
UniProt P9WPC3, whole entry partner: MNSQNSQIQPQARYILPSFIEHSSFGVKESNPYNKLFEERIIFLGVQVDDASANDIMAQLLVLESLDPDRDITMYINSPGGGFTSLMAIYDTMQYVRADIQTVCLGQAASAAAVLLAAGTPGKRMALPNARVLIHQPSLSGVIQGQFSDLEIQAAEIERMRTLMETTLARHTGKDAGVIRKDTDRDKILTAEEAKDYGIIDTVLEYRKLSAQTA
UniProt P9WFT3, whole entry: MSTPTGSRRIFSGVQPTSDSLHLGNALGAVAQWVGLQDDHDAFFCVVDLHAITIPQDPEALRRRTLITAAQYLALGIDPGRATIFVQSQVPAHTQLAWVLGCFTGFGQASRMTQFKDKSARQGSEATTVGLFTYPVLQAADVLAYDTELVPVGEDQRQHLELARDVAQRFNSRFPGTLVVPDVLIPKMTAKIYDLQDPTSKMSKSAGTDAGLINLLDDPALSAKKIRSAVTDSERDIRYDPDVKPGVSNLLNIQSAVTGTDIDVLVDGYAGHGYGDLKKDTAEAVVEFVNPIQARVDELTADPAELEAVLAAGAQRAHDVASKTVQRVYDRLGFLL
UniProt I6X8D2, whole entry: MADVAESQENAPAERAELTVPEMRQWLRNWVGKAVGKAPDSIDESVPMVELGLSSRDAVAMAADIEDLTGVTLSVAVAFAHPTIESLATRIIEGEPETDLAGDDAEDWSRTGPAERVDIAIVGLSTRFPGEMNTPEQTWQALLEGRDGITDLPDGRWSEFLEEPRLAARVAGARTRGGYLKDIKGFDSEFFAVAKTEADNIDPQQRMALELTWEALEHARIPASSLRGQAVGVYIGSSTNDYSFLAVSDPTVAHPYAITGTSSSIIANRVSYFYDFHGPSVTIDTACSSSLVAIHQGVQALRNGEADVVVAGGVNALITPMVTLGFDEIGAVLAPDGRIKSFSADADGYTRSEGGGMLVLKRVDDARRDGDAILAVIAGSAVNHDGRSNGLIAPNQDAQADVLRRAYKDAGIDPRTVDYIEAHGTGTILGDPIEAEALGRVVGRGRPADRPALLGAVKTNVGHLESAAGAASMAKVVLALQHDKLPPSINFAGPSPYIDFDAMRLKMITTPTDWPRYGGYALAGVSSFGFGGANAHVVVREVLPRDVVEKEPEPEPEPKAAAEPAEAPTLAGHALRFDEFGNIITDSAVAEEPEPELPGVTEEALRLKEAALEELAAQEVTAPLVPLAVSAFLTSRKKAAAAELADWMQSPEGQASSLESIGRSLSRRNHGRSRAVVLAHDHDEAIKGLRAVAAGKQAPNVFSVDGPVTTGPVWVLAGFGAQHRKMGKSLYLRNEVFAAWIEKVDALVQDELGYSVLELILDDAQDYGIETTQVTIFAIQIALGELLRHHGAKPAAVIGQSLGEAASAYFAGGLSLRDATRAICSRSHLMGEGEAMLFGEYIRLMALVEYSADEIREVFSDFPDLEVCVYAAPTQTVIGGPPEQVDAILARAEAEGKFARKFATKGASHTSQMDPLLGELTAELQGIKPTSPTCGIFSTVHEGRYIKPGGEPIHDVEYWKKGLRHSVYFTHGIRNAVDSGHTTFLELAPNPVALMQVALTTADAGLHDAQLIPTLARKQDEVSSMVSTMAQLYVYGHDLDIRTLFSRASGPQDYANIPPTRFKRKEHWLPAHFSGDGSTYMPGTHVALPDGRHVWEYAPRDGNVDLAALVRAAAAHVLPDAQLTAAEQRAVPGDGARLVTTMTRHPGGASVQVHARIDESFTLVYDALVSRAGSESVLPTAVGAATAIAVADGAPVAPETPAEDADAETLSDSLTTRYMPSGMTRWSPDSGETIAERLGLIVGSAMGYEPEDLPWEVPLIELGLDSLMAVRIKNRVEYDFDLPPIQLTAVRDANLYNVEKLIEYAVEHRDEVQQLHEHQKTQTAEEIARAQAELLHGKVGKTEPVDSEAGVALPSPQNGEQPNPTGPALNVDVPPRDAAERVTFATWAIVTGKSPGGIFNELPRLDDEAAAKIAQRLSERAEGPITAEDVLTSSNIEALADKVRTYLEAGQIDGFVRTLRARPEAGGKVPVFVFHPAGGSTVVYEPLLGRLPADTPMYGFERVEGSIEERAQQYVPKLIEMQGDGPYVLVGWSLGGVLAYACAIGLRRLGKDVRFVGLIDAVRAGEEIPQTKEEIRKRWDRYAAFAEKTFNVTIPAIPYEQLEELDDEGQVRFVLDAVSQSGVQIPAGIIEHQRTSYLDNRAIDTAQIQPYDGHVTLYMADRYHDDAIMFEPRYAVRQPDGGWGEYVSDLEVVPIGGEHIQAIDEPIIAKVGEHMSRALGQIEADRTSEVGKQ
UniProt Q8IDJ8, 1-583: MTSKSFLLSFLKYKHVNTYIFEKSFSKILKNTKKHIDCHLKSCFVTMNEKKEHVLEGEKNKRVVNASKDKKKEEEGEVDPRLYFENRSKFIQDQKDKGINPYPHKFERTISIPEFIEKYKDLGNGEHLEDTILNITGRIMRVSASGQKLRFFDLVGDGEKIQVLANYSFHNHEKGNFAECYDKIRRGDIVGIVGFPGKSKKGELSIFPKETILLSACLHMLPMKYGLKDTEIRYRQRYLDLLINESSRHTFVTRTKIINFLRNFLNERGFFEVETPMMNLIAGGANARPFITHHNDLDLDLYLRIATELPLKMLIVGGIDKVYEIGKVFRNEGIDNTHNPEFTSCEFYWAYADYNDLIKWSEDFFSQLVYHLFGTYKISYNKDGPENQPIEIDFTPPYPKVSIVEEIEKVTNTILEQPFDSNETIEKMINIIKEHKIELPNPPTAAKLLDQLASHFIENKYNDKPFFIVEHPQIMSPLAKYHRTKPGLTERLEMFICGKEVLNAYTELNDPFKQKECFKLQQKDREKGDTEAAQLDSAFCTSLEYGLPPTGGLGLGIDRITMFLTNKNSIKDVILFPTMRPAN

Each number is a percent effect as filed. The controls that fix the scale are not given in the record; negative values are as filed. The compounds are a random part of those screened.

A: 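Protease assay of ClpP1P2, read by the AMC dye that it sets free. Target: ClpP1P2, Mycobacterium tuberculosis (UniProt P9WPC5 and UniProt P9WPC3). Tested at 50 µM. Direction is inferred from only a few compounds that gave an IC50; most scored high, so higher reads as stronger inhibition. Most other retested compounds had strongly negative values. Of about 69,000 compounds tested this way, about 10 (0.015%) reached 50% or more in at least one test.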
B: 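Enzyme assay of tryptophanyl-tRNA synthetase; the read-out is not stated. Target: Tryptophan-tRNA ligase, Mycobacterium tuberculosis (UniProt P9WFT3). Concentration: 10 µM. Higher most likely means stronger inhibition; the record gives no direction and few retests gave an IC50. Of about 65,000 compounds tested this way, about 64 (0.098%) reached 50% or more in at least one test.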
C: 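Polyketide synthase Pks13, Mycobacterium tuberculosis (UniProt I6X8D2). Enzyme assay of the thioesterase domain of polyketide synthase 13; the read-out is not stated. Concentration: 30 µM. The record gives no direction; the compounds picked for IC50 retests had high values, so higher reads as stronger inhibition. Of about 67,000 compounds tested this way, about 300 (0.46%) reached 50% or more in at least one test.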
D: 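Lysine-tRNA ligase, Plasmodium falciparum 3D7 (UniProt Q8IDJ8). Enzyme assay of the cytosolic lysyl-tRNA synthetase in 384-well plates, read by luminescence. Tested at 30 µM. Direction is inferred from only a few compounds that gave an IC50; most scored high, so higher reads as stronger inhibition. Of about 69,000 compounds tested this way, about 49 (0.071%) reached 50% or more in at least one test.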

CC(Nc1ncnc2c1CCNC2)c1ccc2c(c1)CCCC2 (configuration not stated) gave A: -22.11%; B: 0.6387%; C: 34.07%; D: 3.405%.
CCn1ncc2c1CCCC2NCc1ccc2c(c1)OCCO2 (configuration not stated) gave A: -1.702%; B: -2.225%; C: -5.421%; D: 6.111%.
CN1CCCC(CCC(=O)N2CCc3c(nc(CC4CC4)[nH]c3=O)C2)C1 (configuration not stated) gave A: -9.115%; B: 3.537%; C: 13.61%; D: 6.23%.
O=C(Nc1ccncc1)C1=NN(c2ccccc2)C(=O)CN1 gave A: -1.301%; B: -4.011%; C: -7.565%; D: 2.512%.
COC(=O)CC1CCN(C(=O)Nc2ccc(-c3ccn[nH]3)cc2)C1 (configuration not stated) gave A: -7.13%; B: 4.513%; C: -13.05%; D: 3.767%.
COC(C)(CNS(=O)(=O)c1cn(C)cn1)c1ccccc1F (configuration not stated) gave A: -5.067%; B: 3.708%; D: -0.2367%.
CC(=O)NC1CCCN(C(=O)CNc2cccc(C)c2Cl)C1 (configuration not stated) gave A: -7.616%; B: -0.2601%; C: -17.33%; D: 0.05733%.
CN(C)[C@@H]1CCN(C(=O)c2ccco2)[C@H]1Cc1cnn(C)c1 gave A: -3.882%; B: -3.715%; C: -11.82%; D: 2.49%.
CCC(C)NC(=O)CCn1ccc(C)n1 (configuration not stated) gave A: -2.052%; B: 3.393%; C: -6.856%; D: 4.354%.
CCCn1nccc1-c1cc(C2CCN(C(C)=O)CC2)ccn1 gave A: -5.517%; B: -1.098%; C: 0.2134%; D: 1.322%.
CN(Cc1ccccn1)C1CCC[C@@H]2CN(CC3CC3)C[C@H]12 (some centres not stated) gave A: 17.09%; B: -8.913%; C: -21.95%; D: 1.969%.
CCc1ncc2c(n1)CN(CC(=O)Nc1ccc(Cl)cn1)CC2 gave A: -9.154%; B: -1.436%; C: 6.994%; D: 6.998%.
O=C(c1ccccn1)N1CCCC(c2ncncc2-c2ccncc2)C1 (configuration not stated) gave A: -6.603%; C: -5.435%; D: 2.442%.
O=C(NC1(c2nccs2)CCCC1)c1[nH]nc(C2CC2)c1Cl gave A: -16.75%; B: 2.213%; C: -19.25%; D: 0.1034%.
CC(C)C(C(=O)N1CCN(c2ccncc2)CC1)n1cncn1 (configuration not stated) gave A: 1.753%; B: 4.225%; C: -16.02%; D: 3.524%.
COc1ccc(C2(C(=O)N3C[C@@H](C(=O)O)[C@H](C(C)C)C3)CC2)cc1 gave A: -1.731%; B: -0.2463%; C: -10.23%; D: 3.082%.
CC(C)(C)c1cc(CN2CCOCC(O)C2)n[nH]1 (configuration not stated) gave A: 17.52%; B: 2.478%; C: -8.932%; D: 5.346%.
O=C(NCC1CC1)C1=NOC2(CCN(S(=O)(=O)c3cccs3)C2)C1 (configuration not stated) gave A: -2.914%; B: 0.4794%; C: -19.74%; D: 4.013%.
CC(NC1(CNC(=O)C(C)(C)C#N)CCOCC1)c1ccccc1 (configuration not stated) gave A: -11.23%; B: -2.85%; C: -8.303%; D: -3.657%.

For reference, 2 entries once more:

- CN(C)[C@@H]1CCN(C(=O)c2ccco2)[C@H]1Cc1cnn(C)c1 | A: -3.882%; B: -3.715%; C: -11.82%; D: 2.49%
- O=C(c1ccccn1)N1CCCC(c2ncncc2-c2ccncc2)C1 (configuration not stated) | A: -6.603%; C: -5.435%; D: 2.442%

The values are deposited in ChEMBL (CHEMBL3988442, “University of Dundee, Small-Polar-MMV Screening Library” (2021)).